Measurements: publication PMC9811443
These are yes or no findings as the source states them, for the method shown. In cells and extracts the contact can be indirect. Some entries that bind do so weakly or less than the wild type.

Protein sequences, listed by entry. Tags and fused reporters are not part of them.
UniProt P60953: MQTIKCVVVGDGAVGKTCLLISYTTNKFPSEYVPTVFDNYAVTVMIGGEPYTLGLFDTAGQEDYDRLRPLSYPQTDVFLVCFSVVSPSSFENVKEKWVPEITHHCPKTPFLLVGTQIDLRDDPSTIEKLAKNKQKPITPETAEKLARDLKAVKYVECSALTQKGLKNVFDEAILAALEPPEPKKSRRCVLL

Target: T1, podocalyxin‐like protein 1 (PODXL) (human (endogenous in hiPSCs)) (UniProt O00592)
T1 sequence: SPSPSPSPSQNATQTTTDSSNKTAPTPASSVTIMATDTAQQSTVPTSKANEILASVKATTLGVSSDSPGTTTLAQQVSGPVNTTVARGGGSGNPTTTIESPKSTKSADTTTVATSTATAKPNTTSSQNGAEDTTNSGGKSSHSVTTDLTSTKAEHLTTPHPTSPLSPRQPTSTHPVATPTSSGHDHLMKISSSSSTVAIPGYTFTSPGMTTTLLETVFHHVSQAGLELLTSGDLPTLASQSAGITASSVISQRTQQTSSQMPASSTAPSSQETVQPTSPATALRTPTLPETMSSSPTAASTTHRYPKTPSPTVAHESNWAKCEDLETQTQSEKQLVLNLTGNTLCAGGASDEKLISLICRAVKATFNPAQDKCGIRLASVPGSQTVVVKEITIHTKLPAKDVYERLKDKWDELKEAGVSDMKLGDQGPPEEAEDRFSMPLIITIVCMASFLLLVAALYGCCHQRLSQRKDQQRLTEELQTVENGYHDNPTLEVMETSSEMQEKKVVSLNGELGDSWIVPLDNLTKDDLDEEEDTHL
Assay: co-IP; anti-PODXL antibody on Dynabeads Protein G, hiPSC lysate (TNI lysis buffer: 0.5% Igepal CA-630, 50 mM Tris pH 7.5, 250 mM NaCl, 1 mM EDTA), overnight at 4 °C; blots for endogenous RAC1 and CDC42; with or without doxycycline (2 x 10^-6 M) to induce PODXL knockout; IgG control antibody

binding: binds
Substance: CDC42 (from UniProt P60953 1-191)
